Some of the results follow. Small differences around the control level are noise.

This assay concerns ppGalNAc-T3 sensor. The experiment in a line: T3 sensor activation Q score (MG/GFP ratio z-score vs DMSO controls) (SD units); higher = more sensor activation (inhibition of ppGalNAc-T3 glycosylation). The note with it: HEK293 sensor cells; 10 µM; 6 h. On the procedure:
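Cells were treated with compound at 10 uM for 6 h, then MG/GFP ratio was read by flow cytometry (10,000 cells per well, duplicate wells). Q = (R - R_neg)/SD_neg relative to DMSO vehicle controls; the signal rises when the glycosyltransferase is inhibited.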
On to `Clc1ccccc1CN1CCN(Cc2ccc3c(c2)OCO3)CC1`, for which the “T3 sensor activation Q score” value is -0.92.

As for `CN1CCC(N2CCOCC2)CC1`, the “T3 sensor activation Q score” value worked out at 0.47.

`NCCc1nc2ccccc2[nH]1`: the “T3 sensor activation Q score” value was 1.05.

With `COc1ccc(CN2CCN(c3ccccc3OC)CC2)cc1C`, the “T3 sensor activation Q score” value is -0.695.

On to `CCOc1ccccc1CN1CCN(c2ccccc2OC)CC1`, for which the “T3 sensor activation Q score” value is 0.435.

With `Cc1ccccc1CN1CCN(c2ccc([N+](=O)[O-])cc2)CC1`, the “T3 sensor activation Q score” value is -0.005.

Consider `Fc1ccccc1N1CCN(Cc2cccc(Cl)c2)CC1`, for which the “T3 sensor activation Q score” value was determined as 0.09.

On to `COc1ccc(N2CCN(Cc3cccc(Cl)c3Cl)CC2)cc1`, for which the “T3 sensor activation Q score” value came to 0.175.

For `Fc1ccccc1N1CCN(Cc2ccccc2Cl)CC1`, the “T3 sensor activation Q score” value came to 0.295.

In the case of `CCC1CN(C)CCC1(O)c1ccccc1` (stereo not given), the “T3 sensor activation Q score” value worked out at 0.195.

Regarding `CC(=O)c1ccc(N2CCN(Cc3cccc(Cl)c3)CC2)cc1`, the “T3 sensor activation Q score” value was -0.355.

In the case of `COc1ccc(CN2CCN(c3ccc(Cl)cc3)CC2)cc1OC`, the “T3 sensor activation Q score” value was 0.17.

As for `CCN1CCN(Cc2ccc(C)cc2C)CC1`, the “T3 sensor activation Q score” value is -0.04.

`CCN1CCN(Cc2cc(F)ccc2F)CC1`: the “T3 sensor activation Q score” value came out at 1.55.

With `CCc1ccc(CN2CCN(C)CC2)cc1`, the “T3 sensor activation Q score” value is 0.275.

Consider `Cc1ccccc1CN1CCN(c2ccc(F)cc2)CC1`, for which the “T3 sensor activation Q score” value stood at 0.065.

For `COc1cccc(N2CCN(Cc3cccc(Cl)c3)CC2)c1`, the “T3 sensor activation Q score” value was 0.815.

Consider `CN1CCN(Cc2ccc[nH]2)CC1`, for which the “T3 sensor activation Q score” value was 0.015.

For the compound `COc1ccc(CN2CCN(c3ccccc3)CC2)c(OC)c1C`, the “T3 sensor activation Q score” value is -0.13.

On to `COc1ccc(CN2CCN(c3cccc(Cl)c3)CC2)c(OC)c1`, for which the “T3 sensor activation Q score” value was determined as 0.335.

As for `COc1ccc(N2C(=O)CC(=O)NC2=O)cc1`, the “T3 sensor activation Q score” value is -0.475.

Consider `CN1CCN(Cc2ccc(F)cc2)CC1`, for which the “T3 sensor activation Q score” value is -0.15.

For the compound `O=[N+]([O-])c1ccccc1CN1CCN(c2ccccc2)CC1`, the “T3 sensor activation Q score” value is -0.525.

As for `CC(C)N1CCN(Cc2cccc(F)c2)CC1`, the “T3 sensor activation Q score” value was found to be 0.075.

With `O=c1cccc2n1C[C@H]1C[C@H]2CN(Cc2cccc(F)c2)C1`, the “T3 sensor activation Q score” value turned out to be 0.145.

As to `CCN1CCN(Cc2ccc(OC)c(OC)c2)CC1`, the “T3 sensor activation Q score” value came out at 0.395.

Consider `COc1cc(CN2CCN(C)CC2)c([N+](=O)[O-])cc1OC`, for which the “T3 sensor activation Q score” value was -1.05.

Turning to `CC(NC(=O)C(Cl)(Cl)Cl)c1ccccc1` (stereo not given), the “T3 sensor activation Q score” value was -1.06.

`CN1CCN(Cc2cc3c(cc2[N+](=O)[O-])OCO3)CC1`: the “T3 sensor activation Q score” value is -0.055.

For the compound `Cc1ccccc1N1CCN(Cc2ccc(Cl)cc2)CC1`, the “T3 sensor activation Q score” value turned out to be 0.515.

Consider `Cc1ccccc1CN1CCN(c2ccccc2C)CC1`, for which the “T3 sensor activation Q score” value worked out at 0.2.

For the compound `COc1cccc(CN2CCN(Cc3ccccc3)CC2)c1`, the “T3 sensor activation Q score” value is -0.845.

`CCN1CCN(Cc2c(Cl)cccc2Cl)CC1`: the “T3 sensor activation Q score” value was found to be 0.29.

Regarding `CCN1CCN(Cc2c(F)cccc2F)CC1`, the “T3 sensor activation Q score” value was determined as 0.465.

Take `OCCN1CCN(Cc2cccc(F)c2)CC1`: the “T3 sensor activation Q score” value is -0.315.

In the case of `COc1cc(CN2CCN(C)CC2)cc(OC)c1`, the “T3 sensor activation Q score” value amounted to 0.105.

On to `COc1ccc(N2CCN(Cc3cccc(F)c3)CC2)cc1`, for which the “T3 sensor activation Q score” value came to 0.27.

Regarding `CN1CCN(Cc2ccc3c(c2)OCO3)CC1`, the “T3 sensor activation Q score” value was -0.15.

Regarding `COc1cccc(CN2CCN(C)CC2)c1`, the “T3 sensor activation Q score” value turned out to be 0.35.

With `Cc1ccccc1CN1CCN(c2cccc(Cl)c2)CC1`, the “T3 sensor activation Q score” value came to 0.085.

Source of the values: the supplement of paper PMC5407854, “Inhibitor of ppGalNAc-T3-mediated O-glycosylation blocks cancer cell invasiveness and lowers FGF23 levels” (eLife, 2017).
